These are yes or no findings as the source states them, for the method shown. Some entries that bind do so weakly or less than the wild type.
Legend:
[1] = molecular target: D1AR-V2R chimera expressed from the pEArrB-1/D1AR vector (Rattus norvegicus (Rat)) (UniProt P18901); test: confocal microscopy of βarrestin2-GFP in HEK-293 cells; dopamine
[2] = molecular target: 5HT1AR-V2R chimera expressed from the pEArrB-1/5HT1AR vector (Homo sapiens (Human)) (UniProt P08908); test: confocal microscopy of βarrestin2-GFP in HEK-293 cells; serotonin
[3] = molecular target: β3AR-V2R chimera expressed from the pEArrB-1/β3AR vector (Homo sapiens (Human)) (UniProt P13945); test: confocal microscopy of βarrestin2-GFP in HEK-293 cells; isoproterenol
[4] = molecular target: Edg1R-V2R chimera expressed from the pEArrB-1/Edg1R vector (Homo sapiens (Human)) (UniProt P21453); test: confocal microscopy of βarrestin2-GFP in HEK-293 cells; sphingosine-1-phosphate

Protein sequences, listed by entry. Tags and fused reporters are not part of them. Lines headed by an entry give the natural chain unless they say otherwise; changes in a name come on top.
UniProt P18901: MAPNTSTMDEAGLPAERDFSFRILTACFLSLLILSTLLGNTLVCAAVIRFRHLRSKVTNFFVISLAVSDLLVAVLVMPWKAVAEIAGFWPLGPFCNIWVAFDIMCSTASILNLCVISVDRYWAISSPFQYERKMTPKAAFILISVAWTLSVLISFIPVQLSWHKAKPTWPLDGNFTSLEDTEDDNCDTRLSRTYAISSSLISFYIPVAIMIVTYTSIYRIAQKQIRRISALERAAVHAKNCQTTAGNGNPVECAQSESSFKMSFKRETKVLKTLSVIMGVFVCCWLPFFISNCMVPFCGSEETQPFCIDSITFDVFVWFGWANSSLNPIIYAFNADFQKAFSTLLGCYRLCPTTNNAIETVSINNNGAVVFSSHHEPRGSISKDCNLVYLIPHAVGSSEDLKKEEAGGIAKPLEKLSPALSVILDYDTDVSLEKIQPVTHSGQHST
UniProt P13945: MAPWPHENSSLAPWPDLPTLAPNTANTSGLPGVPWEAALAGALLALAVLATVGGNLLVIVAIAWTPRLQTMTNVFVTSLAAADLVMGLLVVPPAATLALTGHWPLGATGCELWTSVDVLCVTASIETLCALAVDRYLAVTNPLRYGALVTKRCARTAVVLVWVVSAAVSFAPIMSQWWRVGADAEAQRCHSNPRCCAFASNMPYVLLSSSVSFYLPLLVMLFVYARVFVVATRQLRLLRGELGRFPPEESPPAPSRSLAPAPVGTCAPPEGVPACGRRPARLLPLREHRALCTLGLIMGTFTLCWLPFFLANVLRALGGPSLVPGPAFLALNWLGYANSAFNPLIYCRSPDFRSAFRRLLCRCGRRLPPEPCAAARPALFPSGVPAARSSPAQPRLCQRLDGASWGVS
UniProt P21453: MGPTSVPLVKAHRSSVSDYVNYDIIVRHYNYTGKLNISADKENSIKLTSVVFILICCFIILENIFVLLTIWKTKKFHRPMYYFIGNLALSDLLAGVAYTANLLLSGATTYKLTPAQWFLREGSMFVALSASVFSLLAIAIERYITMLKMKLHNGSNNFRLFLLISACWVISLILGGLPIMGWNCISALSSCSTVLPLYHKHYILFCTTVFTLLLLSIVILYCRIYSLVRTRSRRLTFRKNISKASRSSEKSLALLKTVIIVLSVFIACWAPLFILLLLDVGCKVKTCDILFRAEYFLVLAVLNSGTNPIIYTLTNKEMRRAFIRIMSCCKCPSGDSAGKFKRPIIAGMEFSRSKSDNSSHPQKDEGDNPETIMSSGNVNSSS
UniProt P29067: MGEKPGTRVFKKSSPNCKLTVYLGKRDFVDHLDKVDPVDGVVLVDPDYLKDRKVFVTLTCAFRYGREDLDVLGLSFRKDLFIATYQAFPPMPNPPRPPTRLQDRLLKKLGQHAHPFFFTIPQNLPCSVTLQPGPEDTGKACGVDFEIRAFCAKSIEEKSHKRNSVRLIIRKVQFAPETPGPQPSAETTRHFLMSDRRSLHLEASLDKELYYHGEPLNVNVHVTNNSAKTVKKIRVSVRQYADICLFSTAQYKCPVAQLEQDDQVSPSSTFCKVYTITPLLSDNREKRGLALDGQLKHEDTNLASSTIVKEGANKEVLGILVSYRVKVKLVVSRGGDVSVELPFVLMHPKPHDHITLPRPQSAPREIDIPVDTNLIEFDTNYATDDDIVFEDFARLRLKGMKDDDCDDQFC

Measured: binding

βarr2-GFP (conjugate of β-arrestin 2 and Green Fluorescent Protein) (from UniProt P29067 1-410; P42212 1-238)
binds: all assays above
